No constants are given. Whether binding was seen depends on the method and setting. For some assays here: Binding seen in cells or lysates may run through a third protein. Some binding calls cover weakened binding; strength is not graded here.
B1: Salmonella FliG (of the MS-FliG ring complex) (protein, UniProt P0A1J9 1-331)
chain: MSNLSGTDKSVILLMTIGEDRAAEVFKHLSTREVQALSTAMANVRQISNKQLTDVLSEFEQEAEQFAALNINANEYLRSVLVKALGEERASSLLEDILETRDTTSGIETLNFMEPQSAADLIRDEHPQIIATILVHLKRSQAADILALFDERLRHDVMLRIATFGGVQPAALAELTEVLNGLLDGQNLKRSKMGGVRTAAEIINLMKTQQEEAVITAVREFDGELAQKIIDEMFLFENLVDVDDRSIQRLLQEVDSESLLIALKGAEPPLREKFLRNMSQRAADILRDDLANRGPVRLSQVENEQKAILLIVRRLAETGEMVIGSGEDTYV
B2: Aa-FliF(58-213), fragment of FliF from Aquifex aeolicus (N-terminal half of the periplasmic region, domains D1 and D2) (domain or fragment, UniProt O67241 58-213)
chain: PDDLNAVVTELDKEGVKYKISPDGRTIYVPENVARELRLKLAAKGVPRKGIVGYELFDKSGIVLSRFQQLVNFKRAIEGELAKTIMSLDCVEFARVHIVLPEKSLFIREEEEAKASVFLKLKPGCELTPEQVKAIRNLVSGSVENLKPSQVVVVDD

What was measured:
[1] = target: T1, Salmonella FliF (MS-ring of the purified MS-FliG ring complex) (Salmonella) (UniProt P15928); assay: co-sedimentation; FliF and FliG co-expressed in Salmonella; membranes solubilised with DDM, ultracentrifugation and 15% to 40% sucrose density gradient; fractions containing FliF and FliG collected
T1 sequence: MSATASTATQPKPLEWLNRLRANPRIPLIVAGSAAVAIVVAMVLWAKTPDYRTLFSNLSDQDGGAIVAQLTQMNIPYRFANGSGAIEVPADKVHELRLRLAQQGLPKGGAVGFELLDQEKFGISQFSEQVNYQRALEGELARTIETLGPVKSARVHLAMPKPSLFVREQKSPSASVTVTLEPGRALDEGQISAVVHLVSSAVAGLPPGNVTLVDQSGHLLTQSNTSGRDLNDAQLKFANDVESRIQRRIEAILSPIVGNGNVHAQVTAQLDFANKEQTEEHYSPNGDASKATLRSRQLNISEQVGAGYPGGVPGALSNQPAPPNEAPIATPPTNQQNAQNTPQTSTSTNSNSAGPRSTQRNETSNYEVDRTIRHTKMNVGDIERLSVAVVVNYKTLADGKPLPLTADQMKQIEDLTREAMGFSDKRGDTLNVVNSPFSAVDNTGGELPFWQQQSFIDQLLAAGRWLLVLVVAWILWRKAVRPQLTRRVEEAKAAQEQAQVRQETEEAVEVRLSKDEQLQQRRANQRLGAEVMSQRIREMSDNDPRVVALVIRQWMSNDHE

[2] = target: Aa-FliF(58-213), fragment of FliF from Aquifex aeolicus (N-terminal half of the periplasmic region, domains D1 and D2) (Aquifex aeolicus) (UniProt O67241); assay: crystal structure; His-FliF(58-213) crystallised at 4°C from 100 mM Na/K phosphate pH 6.2, 2.5 M NaCl; space group H3, two molecules in the asymmetric unit; 2.3 Å; both purified

Binder | binding [1] | binding [2]
B1 | binds | –
B2 | – | no binding

Source: article PMC8092281, “Two Distinct Conformations in 34 FliF Subunits Generate Three Different Symmetries within the Flagellar MS-Ring” (mBio, 2021)
